The text below walks through data of publication PMC4823841.

Assay [1] concerns the target recombinant ovine angiotensinogen expressed in E. coli (ovine (sheep)) (UniProt P20757). The assay is described as follows: SEC; analytical size-exclusion gel filtration, Superdex 200 10/300 GL, 2 mM HEPES, 0.20 M KCl, pH 8.0, 0.3 mL/min, calibrated with the Gel Filtration Standard; both purified. A general note: In gel filtration, larger molecules generally elute earlier.

Assay [2] shares this target. The assay is described as follows: dynamic light scattering; 25 °C, 0.5 mg/mL oANG, 20 mM sodium phosphate pH 7.4, 20 mM (oANG_(Ecoli)) or 33 mM (oANGCHO) KCl; both purified.

These are yes or no findings as the source states them, for the method shown.

B1: recombinant ovine angiotensinogen expressed in E. coli (protein, UniProt P20757 25-476)
chain: MDRVYIHPFHLLVHSKSNCDQLEKPSVETPADPTLTPVPIQTKSSPVDEEALWEQLVRATEKLEAEDRLRASEVGLLLNFMGFHVYKTLSETWSVASGLVFSPVALFSTLTSFYTGALDPTASRLQAFLGVPGEGQGCTSRLDGRKVLSSLQTIQGLLVAPGGASSQARLLLSTVVGLFTAPGLHLKQPFVQGLSSFAPITLPRSLDLSTDPNLAAEKINRFMHSATGWNMGRPLAAASPDSTLLFNAYVHFQGKMKGFSLLPGLTEFWVDNTTSVPVPMLSGSGTFHYWSDNQNHLSMTRVPLSANGYLLLIQPHHTLDLRKVEALIFQHNFLTRMKNLSPRAIHLTVPQLTLKASYDLQDLLAQAKLPTLLGAEANLGKISDANLRVGKVLNSVLFELKADGEQAPESVPQPAGPEALEVTLNSPFLLAVLERSSGALHFLGRVSRPLSAE
For B1, the binding entry in assay [1] is on record as “no binding”; in assay [2], “no binding (tested: 0.5 mg/mL)”.
